Test results as given in publication PMC9060813, “Protein with negative surface charge distribution, Bnr1, shows characteristics of a DNA‐mimic protein and may be involved in the adaptation of Burkholderia cenocepacia” (MicrobiologyOpen, 2022).
These are yes or no findings as the source states them, for the method shown. In cells and extracts the contact can be indirect. A yes stands for co-enrichment or nearness to the bait. Other partners may have been found. Tags and fused reporters may be left off the sequences shown.

T1: FLAG-tagged BCAS0292 (Bnr1) (Burkholderia cenocepacia) (UniProt B4EQ58)
T1 sequence: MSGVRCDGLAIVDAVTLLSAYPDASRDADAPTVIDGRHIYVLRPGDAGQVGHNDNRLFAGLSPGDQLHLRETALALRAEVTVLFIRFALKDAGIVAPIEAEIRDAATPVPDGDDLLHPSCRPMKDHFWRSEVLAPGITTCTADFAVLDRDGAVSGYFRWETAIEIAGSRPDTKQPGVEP


Each molecule was assayed against T1, FLAG-tagged BCAS0292 (Bnr1) (Burkholderia cenocepacia) (assay: affinity purification with mass spectrometry; FLAG-BCAS0292 from E. coli lysate immobilised on anti-FLAG resin and washed (bait); B. cenocepacia K56-2 lysate (DNAse treated) as prey, 4°C overnight, TBS washes; bands cut from SDS-PAGE and identified by LC-MS; three independent pull-downs; only the target purified).

binding	Molecule
binds	protein translocase subunit SecA
binds	HctB, histone H1-like protein (protein, UniProt B4E5V7 1-216) MATAKKKPAAKKVAAKKTVAKKAAAPAKKAAVKKVAAKKVAVKKVAAKKAAPAKKAAAKKVAAKKVATKKVAAKKVAAKKAAPAKKAAAKKVAAKKVAVKKVAAKKAAPAKKAAAKKAAPAKKAAAKKAAPAKKAAAKKAAPAKKAAAKKAAPAKKAAPAKKAAAPAKKAAAPKKAVVKKAAPATTASTASVAPASGVKTALNPAAAWPFPTGSRP
binds	BCAM1012, putative histone-like protein (protein, UniProt B4EFM0 1-149) MATSAKKVAKKAAAPATKKVAAKKAAPAKKVVAKKAVAKAAPAAPTPLKDKFTKASLATHIAERAAVEVKAVKAVLAALENVVLGSVHKKGAGEFTLPGLLKITAQVVPAKKKRFGKDPFTGEERWFPAKPASVRVKARALKKLKDAAA
